These results are taken from publication PMC3747071.

The chains behind the UniProt entries cited, without tags or fusion partners. Where a name states a change or a piece, a line headed by the entry shows the natural chain unless it says otherwise.
UniProt Q9VEN9: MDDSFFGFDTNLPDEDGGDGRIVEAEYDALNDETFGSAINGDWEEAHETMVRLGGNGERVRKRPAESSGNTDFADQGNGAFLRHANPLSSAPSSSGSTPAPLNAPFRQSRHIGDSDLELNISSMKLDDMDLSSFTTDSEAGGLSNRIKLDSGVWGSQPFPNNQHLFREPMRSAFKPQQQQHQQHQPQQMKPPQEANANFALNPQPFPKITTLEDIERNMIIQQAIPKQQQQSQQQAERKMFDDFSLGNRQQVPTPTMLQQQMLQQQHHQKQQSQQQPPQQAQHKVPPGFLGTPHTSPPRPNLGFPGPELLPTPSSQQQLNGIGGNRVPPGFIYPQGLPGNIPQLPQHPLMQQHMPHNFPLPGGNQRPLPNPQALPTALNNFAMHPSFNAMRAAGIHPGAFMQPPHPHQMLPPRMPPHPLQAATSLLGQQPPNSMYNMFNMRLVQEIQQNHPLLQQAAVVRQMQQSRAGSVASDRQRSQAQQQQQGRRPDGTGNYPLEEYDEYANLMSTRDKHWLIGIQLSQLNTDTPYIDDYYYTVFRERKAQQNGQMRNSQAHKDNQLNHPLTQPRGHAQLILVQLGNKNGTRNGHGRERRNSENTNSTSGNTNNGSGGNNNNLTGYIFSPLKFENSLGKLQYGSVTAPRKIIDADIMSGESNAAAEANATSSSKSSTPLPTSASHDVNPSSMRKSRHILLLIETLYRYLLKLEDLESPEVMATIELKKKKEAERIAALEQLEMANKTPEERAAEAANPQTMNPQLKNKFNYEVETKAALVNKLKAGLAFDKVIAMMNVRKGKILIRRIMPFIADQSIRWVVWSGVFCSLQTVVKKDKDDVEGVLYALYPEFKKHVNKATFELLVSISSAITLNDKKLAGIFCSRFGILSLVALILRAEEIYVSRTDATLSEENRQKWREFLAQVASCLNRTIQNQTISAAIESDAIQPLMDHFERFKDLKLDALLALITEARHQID
UniProt Q32KD4: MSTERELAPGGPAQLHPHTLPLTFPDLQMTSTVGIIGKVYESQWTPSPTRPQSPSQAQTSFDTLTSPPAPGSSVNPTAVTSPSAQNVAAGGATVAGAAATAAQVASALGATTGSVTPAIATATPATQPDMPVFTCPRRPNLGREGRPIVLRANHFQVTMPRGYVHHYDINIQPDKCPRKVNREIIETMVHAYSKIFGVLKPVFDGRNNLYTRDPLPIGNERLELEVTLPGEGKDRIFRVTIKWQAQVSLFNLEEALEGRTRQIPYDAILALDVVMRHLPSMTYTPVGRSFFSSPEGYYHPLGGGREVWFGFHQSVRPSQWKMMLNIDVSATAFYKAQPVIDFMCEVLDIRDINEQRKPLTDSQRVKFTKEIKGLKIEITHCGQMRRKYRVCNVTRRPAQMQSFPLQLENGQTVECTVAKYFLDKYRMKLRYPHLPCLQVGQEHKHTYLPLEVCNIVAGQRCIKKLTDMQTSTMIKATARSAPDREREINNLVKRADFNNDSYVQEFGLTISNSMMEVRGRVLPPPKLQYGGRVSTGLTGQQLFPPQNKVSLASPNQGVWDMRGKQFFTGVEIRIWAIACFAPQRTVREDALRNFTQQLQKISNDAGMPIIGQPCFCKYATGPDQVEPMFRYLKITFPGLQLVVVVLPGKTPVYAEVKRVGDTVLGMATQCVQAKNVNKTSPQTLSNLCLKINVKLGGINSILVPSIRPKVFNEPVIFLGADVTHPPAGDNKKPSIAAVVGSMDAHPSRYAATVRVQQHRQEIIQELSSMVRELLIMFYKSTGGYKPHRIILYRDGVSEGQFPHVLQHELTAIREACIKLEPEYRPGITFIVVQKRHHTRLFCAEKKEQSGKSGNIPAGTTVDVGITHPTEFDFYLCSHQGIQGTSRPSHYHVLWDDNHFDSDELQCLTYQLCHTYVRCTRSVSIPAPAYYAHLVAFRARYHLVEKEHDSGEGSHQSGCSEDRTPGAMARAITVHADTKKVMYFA

For assay [1], the target named is HPat (endogenous) (Drosophila (endogenous in S2 cells)) (UniProt Q9VEN9). Briefly: co-IP; endogenous proteins from Drosophila S2 cell lysate; polyclonal anti-HPat or anti-GW182 antibody (preimmune sera as control) and protein A sepharose; NET buffer (50 mM Tris/Cl pH 7.5, 150 mM NaCl, 1 mM EDTA, 0.5% NP-40), 4°C; Western blot.
The target in assay [2] is T1, TAP-tagged GW182 (Drosophila) (UniProt Q8SY33).
T1 sequence: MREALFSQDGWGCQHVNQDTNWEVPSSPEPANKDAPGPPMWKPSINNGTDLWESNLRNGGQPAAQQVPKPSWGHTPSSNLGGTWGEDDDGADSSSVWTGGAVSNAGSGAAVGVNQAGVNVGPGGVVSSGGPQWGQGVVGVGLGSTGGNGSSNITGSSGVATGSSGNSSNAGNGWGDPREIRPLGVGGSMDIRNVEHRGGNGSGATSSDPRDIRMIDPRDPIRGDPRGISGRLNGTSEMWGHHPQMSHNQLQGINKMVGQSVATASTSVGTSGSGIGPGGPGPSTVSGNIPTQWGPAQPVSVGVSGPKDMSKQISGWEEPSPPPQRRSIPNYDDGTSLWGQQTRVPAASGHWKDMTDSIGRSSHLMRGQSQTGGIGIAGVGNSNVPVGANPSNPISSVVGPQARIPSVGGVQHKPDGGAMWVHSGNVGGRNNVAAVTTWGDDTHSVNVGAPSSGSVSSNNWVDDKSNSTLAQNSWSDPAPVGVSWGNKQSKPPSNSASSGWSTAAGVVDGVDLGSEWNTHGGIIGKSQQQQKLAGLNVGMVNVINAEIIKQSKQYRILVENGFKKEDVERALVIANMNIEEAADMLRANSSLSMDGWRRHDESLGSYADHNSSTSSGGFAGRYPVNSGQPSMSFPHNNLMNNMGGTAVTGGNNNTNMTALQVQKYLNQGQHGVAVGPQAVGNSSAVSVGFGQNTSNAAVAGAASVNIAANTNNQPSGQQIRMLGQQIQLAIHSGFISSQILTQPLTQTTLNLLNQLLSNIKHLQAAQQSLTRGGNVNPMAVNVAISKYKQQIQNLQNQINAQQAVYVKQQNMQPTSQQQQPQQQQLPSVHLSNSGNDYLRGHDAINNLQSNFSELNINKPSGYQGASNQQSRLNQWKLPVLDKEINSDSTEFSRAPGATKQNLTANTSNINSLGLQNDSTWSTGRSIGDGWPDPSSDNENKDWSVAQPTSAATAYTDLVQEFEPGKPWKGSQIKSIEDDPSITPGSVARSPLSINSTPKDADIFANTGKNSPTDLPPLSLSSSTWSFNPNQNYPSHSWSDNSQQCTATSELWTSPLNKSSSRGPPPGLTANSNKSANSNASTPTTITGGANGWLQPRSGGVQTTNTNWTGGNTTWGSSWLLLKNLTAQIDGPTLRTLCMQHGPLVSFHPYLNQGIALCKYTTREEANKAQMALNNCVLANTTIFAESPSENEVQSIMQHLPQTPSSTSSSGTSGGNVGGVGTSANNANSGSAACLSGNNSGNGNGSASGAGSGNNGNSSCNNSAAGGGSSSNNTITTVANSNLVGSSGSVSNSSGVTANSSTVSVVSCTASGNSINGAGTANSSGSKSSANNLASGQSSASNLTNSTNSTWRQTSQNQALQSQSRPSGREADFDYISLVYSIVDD
In words: pull-down; second step of the split-affinity purification: biotin eluate of the Strep-Tactin pull-down on IgG cross-linked Dynabeads that bind the protein A moiety of TAP-GW182; RNA maintaining conditions or RNase A; Western blot. (In general: Immunoblotting shows a protein as a band on a membrane.)

The target in assay [3] is T2, GW182 (endogenous) (Drosophila (endogenous in S2 cells)) (UniProt Q8SY33).
T2 sequence: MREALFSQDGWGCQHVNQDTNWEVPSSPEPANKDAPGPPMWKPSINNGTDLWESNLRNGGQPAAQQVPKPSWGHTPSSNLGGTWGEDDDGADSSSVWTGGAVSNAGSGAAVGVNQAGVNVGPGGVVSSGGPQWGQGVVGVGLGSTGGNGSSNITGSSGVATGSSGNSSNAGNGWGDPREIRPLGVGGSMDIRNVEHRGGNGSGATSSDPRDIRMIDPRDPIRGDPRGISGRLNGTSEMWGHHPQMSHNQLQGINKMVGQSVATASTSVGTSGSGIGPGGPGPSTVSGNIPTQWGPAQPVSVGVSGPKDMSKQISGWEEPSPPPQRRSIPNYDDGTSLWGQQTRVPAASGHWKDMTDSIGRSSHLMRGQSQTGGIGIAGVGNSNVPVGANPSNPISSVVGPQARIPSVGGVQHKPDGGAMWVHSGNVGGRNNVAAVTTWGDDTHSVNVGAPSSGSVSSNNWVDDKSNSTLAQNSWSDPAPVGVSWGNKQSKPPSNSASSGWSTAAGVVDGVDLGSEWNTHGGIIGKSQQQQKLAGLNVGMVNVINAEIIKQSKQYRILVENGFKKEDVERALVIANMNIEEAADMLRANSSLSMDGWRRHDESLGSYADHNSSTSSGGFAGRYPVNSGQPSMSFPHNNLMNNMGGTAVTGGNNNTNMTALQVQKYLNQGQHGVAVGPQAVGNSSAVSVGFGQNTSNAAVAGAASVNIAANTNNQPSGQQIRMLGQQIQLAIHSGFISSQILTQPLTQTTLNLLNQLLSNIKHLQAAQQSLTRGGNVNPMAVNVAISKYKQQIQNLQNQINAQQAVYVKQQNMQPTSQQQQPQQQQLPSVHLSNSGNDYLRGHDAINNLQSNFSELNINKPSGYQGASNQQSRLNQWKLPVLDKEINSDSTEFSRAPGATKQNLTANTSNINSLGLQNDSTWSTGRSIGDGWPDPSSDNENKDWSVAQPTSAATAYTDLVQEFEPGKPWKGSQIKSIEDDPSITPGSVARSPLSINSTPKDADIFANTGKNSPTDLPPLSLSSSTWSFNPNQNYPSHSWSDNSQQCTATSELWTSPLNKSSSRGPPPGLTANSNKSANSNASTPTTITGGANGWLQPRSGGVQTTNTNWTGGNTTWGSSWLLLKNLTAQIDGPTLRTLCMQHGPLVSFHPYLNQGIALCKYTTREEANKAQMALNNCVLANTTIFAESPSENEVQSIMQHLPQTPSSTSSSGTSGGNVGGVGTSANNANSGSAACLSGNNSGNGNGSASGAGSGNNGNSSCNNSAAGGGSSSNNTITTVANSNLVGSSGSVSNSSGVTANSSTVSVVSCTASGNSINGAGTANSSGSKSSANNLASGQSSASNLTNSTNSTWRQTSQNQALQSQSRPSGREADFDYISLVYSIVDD
Briefly: co-IP; endogenous proteins from Drosophila S2 cell lysate; polyclonal anti-HPat or anti-GW182 antibody (preimmune sera as control) and protein A sepharose; NET buffer (50 mM Tris/Cl pH 7.5, 150 mM NaCl, 1 mM EDTA, 0.5% NP-40), 4°C; Western blot.

Assay [4] has as its target Twin-Strep-tagged AGO1 (Drosophila) (UniProt Q32KD4). In words: pull-down; first step of the split-affinity purification: lysate of stable S2 cells co-expressing TAP-GW182 and Twin-Strep-AGO1 or Twin-Strep-GFP on Strep-Tactin beads, biotin eluate; RNA maintaining conditions or 10 µg/ml RNase A; 50 mM Tris/Cl pH 7.5, 150 mM NaCl, 0.5% NP40, 4°C; Western blot.
The target of assay [5] is T3, HA-tagged GW182 (Drosophila) (UniProt Q8SY33).
T3 sequence: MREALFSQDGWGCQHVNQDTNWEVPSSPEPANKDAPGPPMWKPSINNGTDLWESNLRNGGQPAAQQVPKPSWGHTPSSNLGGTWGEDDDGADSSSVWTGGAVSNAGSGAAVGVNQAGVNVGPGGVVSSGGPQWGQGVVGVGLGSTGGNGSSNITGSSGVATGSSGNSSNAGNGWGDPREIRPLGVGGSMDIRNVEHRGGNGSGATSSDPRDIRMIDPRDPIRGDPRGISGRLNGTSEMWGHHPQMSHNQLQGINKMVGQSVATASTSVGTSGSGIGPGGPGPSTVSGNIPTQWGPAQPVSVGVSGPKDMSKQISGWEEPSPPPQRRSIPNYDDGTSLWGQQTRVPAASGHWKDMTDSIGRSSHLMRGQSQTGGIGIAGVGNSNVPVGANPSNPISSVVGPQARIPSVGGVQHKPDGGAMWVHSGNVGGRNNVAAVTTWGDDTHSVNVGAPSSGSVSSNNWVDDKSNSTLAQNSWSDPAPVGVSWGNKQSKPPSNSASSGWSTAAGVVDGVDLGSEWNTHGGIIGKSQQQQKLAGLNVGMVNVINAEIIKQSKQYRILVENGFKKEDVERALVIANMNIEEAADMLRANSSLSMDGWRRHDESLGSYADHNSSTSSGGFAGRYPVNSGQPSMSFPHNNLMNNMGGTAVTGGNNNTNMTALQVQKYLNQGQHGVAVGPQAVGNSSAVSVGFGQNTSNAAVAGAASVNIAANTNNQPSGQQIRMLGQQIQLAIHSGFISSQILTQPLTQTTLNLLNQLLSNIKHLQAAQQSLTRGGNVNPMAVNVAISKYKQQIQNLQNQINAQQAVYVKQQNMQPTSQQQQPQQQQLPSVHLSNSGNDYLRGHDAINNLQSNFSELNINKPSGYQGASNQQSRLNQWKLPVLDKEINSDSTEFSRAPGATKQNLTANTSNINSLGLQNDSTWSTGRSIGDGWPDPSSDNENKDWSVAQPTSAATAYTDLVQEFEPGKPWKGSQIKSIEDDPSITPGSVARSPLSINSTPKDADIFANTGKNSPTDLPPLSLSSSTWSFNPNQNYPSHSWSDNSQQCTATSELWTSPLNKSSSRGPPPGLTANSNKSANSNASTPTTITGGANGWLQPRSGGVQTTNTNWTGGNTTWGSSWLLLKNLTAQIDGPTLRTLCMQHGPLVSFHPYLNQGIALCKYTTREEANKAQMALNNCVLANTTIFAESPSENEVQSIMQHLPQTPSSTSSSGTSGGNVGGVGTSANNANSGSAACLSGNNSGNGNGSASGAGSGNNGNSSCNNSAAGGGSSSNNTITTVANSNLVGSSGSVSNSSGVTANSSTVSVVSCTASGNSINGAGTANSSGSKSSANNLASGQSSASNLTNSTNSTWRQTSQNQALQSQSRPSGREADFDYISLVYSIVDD
Briefly: co-IP; lysate of stable S2 cells expressing HA-GW182 and Myc-HPat, treated with dsRNA against YFP (control), AGO1, NOT1, EDC4 and DCP1, or XRN1; anti-HA antibody (12CA5) cross-linked to protein A sepharose; washes with NET buffer with 300 mM NaCl; quantitative Western blot.

No constants are given. Whether binding was seen depends on the method and setting. Binding seen in cells or lysates may run through a third protein. Binding calls can cover weak binding; strength is not graded here. For part of these data: Tags and fused reporters may be left off the sequences shown.

For the molecule “AGO1 (endogenous) (from UniProt Q32KD4 1-984)”, the binding entry in assay [1] was “binds”.

As for HPat (endogenous) (from UniProt Q9VEN9), the binding entry in assay [2], in assay [3] and in assay [4] was “binds” each time. For Myc-tagged HPat (Drosophila), in assay [5], the binding entry is listed as “binds”.

B1: GW182 (endogenous) (protein, UniProt Q8SY33-1 1-1384)
chain: MREALFSQDGWGCQHVNQDTNWEVPSSPEPANKDAPGPPMWKPSINNGTDLWESNLRNGGQPAAQQVPKPSWGHTPSSNLGGTWGEDDDGADSSSVWTGGAVSNAGSGAAVGVNQAGVNVGPGGVVSSGGPQWGQGVVGVGLGSTGGNGSSNITGSSGVATGSSGNSSNAGNGWGDPREIRPLGVGGSMDIRNVEHRGGNGSGATSSDPRDIRMIDPRDPIRGDPRGISGRLNGTSEMWGHHPQMSHNQLQGINKMVGQSVATASTSVGTSGSGIGPGGPGPSTVSGNIPTQWGPAQPVSVGVSGPKDMSKQISGWEEPSPPPQRRSIPNYDDGTSLWGQQTRVPAASGHWKDMTDSIGRSSHLMRGQSQTGGIGIAGVGNSNVPVGANPSNPISSVVGPQARIPSVGGVQHKPDGGAMWVHSGNVGGRNNVAAVTTWGDDTHSVNVGAPSSGSVSSNNWVDDKSNSTLAQNSWSDPAPVGVSWGNKQSKPPSNSASSGWSTAAGVVDGVDLGSEWNTHGGIIGKSQQQQKLAGLNVGMVNVINAEIIKQSKQYRILVENGFKKEDVERALVIANMNIEEAADMLRANSSLSMDGWRRHDESLGSYADHNSSTSSGGFAGRYPVNSGQPSMSFPHNNLMNNMGGTAVTGGNNNTNMTALQVQKYLNQGQHGVAVGPQAVGNSSAVSVGFGQNTSNAAVAGAASVNIAANTNNQPSGQQIRMLGQQIQLAIHSGFISSQILTQPLTQTTLNLLNQLLSNIKHLQAAQQSLTRGGNVNPMAVNVAISKYKQQIQNLQNQINAQQAVYVKQQNMQPTSQQQQPQQQQLPSVHLSNSGNDYLRGHDAINNLQSNFSELNINKPSGYQGASNQQSRLNQWKLPVLDKEINSDSTEFSRAPGATKQNLTANTSNINSLGLQNDSTWSTGRSIGDGWPDPSSDNENKDWSVAQPTSAATAYTDLVQEFEPGKPWKGSQIKSIEDDPSITPGSVARSPLSINSTPKDADIFANTGKNSPTDLPPLSLSSSTWSFNPNQNYPSHSWSDNSQQCTATSELWTSPLNKSSSRGPPPGLTANSNKSANSNASTPTTITGGANGWLQPRSGGVQTTNTNWTGGNTTWGSSWLLLKNLTAQIDGPTLRTLCMQHGPLVSFHPYLNQGIALCKYTTREEANKAQMALNNCVLANTTIFAESPSENEVQSIMQHLPQTPSSTSSSGTSGGNVGGVGTSANNANSGSAACLSGNNSGNGNGSASGAGSGNNGNSSCNNSAAGGGSSSNNTITTVANSNLVGSSGSVSNSSGVTANSSTVSVVSCTASGNSINGAGTANSSGSKSSANNLASGQSSASNLTNSTNSTWRQTSQNQALQSQSRPSGREADFDYISLVYSIVDD
For the molecule B1, in assay [1], the binding result was “binds”.
